The test is described as follows: qHTS Assay for Lipid Storage Modulators in Drosophila S3 Cells.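 On cell number change: cells counted by Cell Tracker Red CMTPX staining in the red channel.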 The note with it: BODIPY lipid droplet fluorescence, 18-24 h; for cell number change: measured here: cell count max response, cells fed with added oleic acid. An outline of the steps: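 Laser-scanning cytometry quantifies lipid droplet accumulation (500–530 nm total intensity; droplet/cell object ratio) in oleic acid-fed (400 uM added) Drosophila S3 cells treated with a concentration series. 20 uM Triacsin C defined 100% inhibition.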
A general note: qHTS replaces the single test concentration by a dilution series.

Where [1] appears, read: measured here: cell number channel AC50, cells fed with added oleic acid.
Setting [2] is: measured here: lipid fluorescence (Fed channel) AC50, cells fed with added oleic acid.

Cell number change and AC50 data for 65 compounds are collected here from PubChem BioAssay AID2685 (National Center for Advancing Translational Sciences (NCATS), 2010).

The other results are listed elsewhere or left out. These are further read-outs of the screen, such as a control signal, another cell line or another target. No call is given for them. The list favours compounds with an active or inconclusive main result. Potencies come from curve fits of mixed quality, noted in brackets.

As usually defined, the AC50 is the concentration giving half of the maximal activity seen. Lower therefore signals activity at low concentration.

Consider `Cc1ccc2cc(CN(Cc3nnnn3C3CCCCC3)CC3CCCO3)c(=O)[nH]c2c1` (stereo not drawn), for which the cell number change is -0.628%.

`Nc1nc(SCC(=O)c2c(N)n(C3CC3)c(=O)[nH]c2=O)n[nH]1`: the cell number change is -19.5%. Take `COc1ccccc1OCC(=O)NN1Cc2ccccc2C1=N`: the cell number change was -28.3%. Moreover, the AC50 under setting [1] was 0.82 µM [falling, full curve]. Besides, under setting [2], the AC50 was 23.1 µM [falling, partial curve]. For `O=C(c1ccccc1Oc1nnnn1-c1ccccc1)N1CCOCC1`, the cell number change was -34%. For the same compound, the AC50 under setting [1] is 0.092 µM [falling, full curve, poor fit]. Besides, under setting [2], the AC50 was 1.03 µM [falling, full curve]. As for `Cc1ccc(C(=O)CCNc2ccc(F)c(Cl)c2)o1`, the cell number change was -6.77%. Further, the AC50 under setting [2] was 3.66 µM [rising, full curve, poor fit]. For `CCCCNC(=O)NC1CCCC1`, the cell number change came out at 4.01%. The AC50 under setting [1] was 6.51 µM [falling, single point]. Regarding `CCC(=O)N(CC)c1nc(-c2cc(OC)ccc2OC)cs1`, the cell number change is 0.707%. Further, the AC50 under setting [2] was 25.9 µM [rising, single point]. With `CC(C)(C)Nc1nc(-c2ccc3c(c2)CCN3C(=O)C2CC2)cs1`, the cell number change was -19.2%. In addition, the AC50 under setting [1] was 0.184 µM [rising, full curve, poor fit]. Take `COCCN=C1Sc2nc3c(C)cccc3cc2CN1Cc1ccco1`: the cell number change was -0.753%. Still for that read-out and setting: in the case of `COc1ccc(S(=O)(=O)Oc2ccccc2C(N)=O)cc1` it was -15.6%. Consider `O=C(NCc1ccc(F)cc1)C1CCC(CNS(=O)(=O)c2cccs2)CC1` (stereo not drawn), for which the cell number change amounted to 2.25%.

Consider `COc1ccc(NC(=O)COC(=O)COc2cccc(Br)c2)cc1OC`, for which the AC50 under setting [2] is 11.6 µM [falling, partial curve]. The same measure, in the same setting: in the case of `O=C(CCS(=O)(=O)c1ccccc1)Nc1nc2c(s1)COc1ccccc1-2` it was 0.291 µM [rising, partial curve]. Regarding `CC1(c2ccc(OC(F)F)cc2)NC(=O)N(/N=C/c2c(O)ccc3ccccc23)C1=O` (stereo not drawn), the cell number change is -78.1%. Under setting [1], the AC50 was 29.1 µM [falling, single point]. In the case of `Cc1cccc(OCC(=O)Nc2ccc(S(=O)(=O)Nc3ccccn3)cc2)c1`, under setting [2], the AC50 is 0.366 µM [rising, partial curve, poor fit]. Regarding `CC(=O)N1CCN(c2ccc(NCc3cccc(C)c3)cc2)CC1`, the cell number change was -6.75%. Moreover, the AC50 under setting [2] is 4.11 µM [falling, single point]. Regarding `CC1=C(C(=O)OCc2ccccc2)C(c2ccccc2Br)NC(=O)N1` (stereo not drawn), the cell number change was found to be 5.41%. With `O=C(NNC1CC(=O)N(c2cccc(Cl)c2)C1=O)c1cccnc1` (stereo not drawn), the cell number change was -33.3%. Besides, the AC50 under setting [1] was 29.1 µM [falling, single point]. For the same compound, the AC50 under setting [2] is 6.51 µM [falling, single point]. Consider `C/C=C/C(=O)OCC(=O)Nc1ccc(OC)c(OC)c1`, for which the cell number change was 44.2%. In addition, the AC50 under setting [1] is 0.146 µM [rising, full curve, poor fit]. In addition, the AC50 under setting [2] was 29.1 µM [rising, single point].

As to `O=C(COC(=O)c1cc([N+](=O)[O-])ccc1N1CCOCC1)Nc1ncc(Cl)cc1Cl`, the cell number change is -1.2%. For the compound `COc1cccc(/C=N/NC(=O)c2cccc3ccccc23)c1`, the cell number change is -10.9%. For `CC(CCc1ccccc1)NC(=O)CC(C)c1ccccc1` (stereo not drawn), the cell number change is -16.8%. For the same compound, the AC50 under setting [2] was 3.26 µM [rising, full curve].

Regarding `CCCCCCC[N+](CC)(CC)CCCCc1ccc(Cl)cc1`, the cell number change was -45.7%. Further, the AC50 under setting [1] was 29.1 µM [falling, single point]. For the same compound, the AC50 under setting [2] was 3.26 µM [falling, partial curve]. On to `CC(C)C(NS(=O)(=O)c1cccc2nsnc12)C(=O)NC1CCCCC1C` (stereo not drawn), for which, under setting [2], the AC50 is 6.51 µM [rising, single point]. For `Cc1cccc(S(=O)(=O)NC(Cc2c[nH]c3ccccc23)C(=O)O)c1` (stereo not drawn), under setting [2], the AC50 is 0.116 µM [falling, full curve, poor fit]. Turning to `CCOC(=O)c1c(NC(=O)CN2CCOCC2)sc2c1CC(C)(C)OC2`, the cell number change was -17.1%. `CC(=O)NC(=S)c1c(N)n(Cc2ccccc2)c(=O)n(C)c1=O`: the cell number change came to 34%. Under setting [1], the AC50 was 6.51 µM [rising, full curve, poor fit]. Also, under setting [2], the AC50 is 9.2 µM [rising, partial curve].

`CCOC(=O)CSc1nnc(COc2cccc(C)c2)o1`: the cell number change was -1.11%. Under setting [2], the AC50 was 0.517 µM [rising, full curve, poor fit]. As to `Cn1nccc1C(=O)Nc1ccc(Cl)cc1`, the cell number change came to 36.7%. Besides, the AC50 under setting [1] is 32.6 µM [rising, single point]. For the compound `CN1CCN(C(=S)NC(=O)c2ccc(Br)cc2)CC1`, the cell number change is -14.3%. The AC50 under setting [2] is 29.1 µM [falling, single point]. Regarding `CC(C)CN1CCCC(N2CCN(c3cccc(Cl)c3)CC2)C1` (stereo not drawn), the cell number change was 8.92%. Also, under setting [2], the AC50 was 20.6 µM [rising, single point].

Consider `CC(OCC(O)CN(C)CCOc1ccccc1)c1ccc(Cl)cc1` (stereo not drawn), for which the cell number change was -9.18%. Turning to `CC(C)(C)n1ncc2c(=O)n(CC(=O)N3CCCCCC3)cnc21`, the cell number change is 21.2%. The AC50 under setting [2] is 1.84 µM [rising, full curve]. For the compound `CCOC(=O)/C(C#N)=C/C1=C(N2CCCC2)CC(C)(C)OC1`, the cell number change was 38.6%. Besides, the AC50 under setting [1] is 5.8 µM [rising, full curve]. Besides, the AC50 under setting [2] is 16.4 µM [rising, partial curve].

Consider `Cn1nc(OC(=O)Nc2ccc(Cl)cc2)cc1C(F)(F)F`, for which the cell number change stood at 19%. Under setting [2], the AC50 is 8.2 µM [falling, partial curve]. For `COc1ccc(OC)c(CNC(=O)Cc2c(C(=O)O)[nH]c3ccccc23)c1`, the cell number change turned out to be 0.8%. Further, the AC50 under setting [2] was 1.03 µM [falling, full curve]. On to `COC(=O)c1ccc(COc2ccc(/C=C/C(=O)c3ccc(OC)c(CSCC(=O)O)c3)cc2OC)cc1`, for which the cell number change is -34.5%. Besides, the AC50 under setting [1] is 0.164 µM [falling, single point]. Regarding `Cc1ccc(-n2nc(C)c(=O)c(-c3ccccc3)c2NC(=O)c2cccs2)cc1`, the AC50 runs as follows: under setting [1], 0.184 µM [falling, full curve, poor fit]; under setting [2], 2.31 µM [falling, partial curve]. Take `CCCCC(C)n1[nH]c(=O)c2c(C)cc(C)nc21` (stereo not drawn): the cell number change was -2.88%. For `CCCCCC(=O)NC(=S)Nc1ccc(N2CCOCC2)cc1`, the cell number change amounted to 31.3%. In addition, the AC50 under setting [1] was 29.1 µM [rising, single point]. Regarding `CCSc1ccc(-c2nn(-c3ccccc3)cc2/C=C(/C#N)C(=O)NCCCOC)cc1`, the cell number change was -54.7%. In addition, under setting [1], the AC50 was 8.2 µM [falling, partial curve]. Moreover, the AC50 under setting [2] was 7.31 µM [falling, partial curve].

For `CCS(=O)(=O)/N=C(\N)c1ccccc1`, the cell number change was determined as 0.408%. On to `Cc1nc2ccccc2n1CC(=O)N/N=C\c1ccccn1`, for which the cell number change was -50.8%. Take `C=CCN(C(=O)c1cc(C)cc(C)c1)C1(C(=O)Nc2ccccc2)CCN(C(C)C)CC1`: the cell number change is -10.5%. Also, under setting [2], the AC50 is 0.13 µM [falling, full curve, poor fit]. On to `CCc1cccc(NC(=O)c2cnn(-c3ccccc3)c2C)c1`, for which the cell number change was -31.7%. The AC50 under setting [1] is 25.9 µM [falling, single point]. Also, the half-maximal activity concentration (AC50) under setting [2] was 29.1 µM [falling, single point]. For `COc1ccccc1C(=O)N(Cc1ccc(C)o1)C1CCS(=O)(=O)C1` (stereo not drawn), the cell number change turned out to be 13.9%. For the same compound, the AC50 under setting [2] was 2.06 µM [rising, partial curve, poor fit]. Turning to `C=C(C)c1cccc(C(C)(C)NC(=O)Nc2ncccn2)c1`, under setting [2], the AC50 is 6.51 µM [falling, single point].

As to `Cc1nc(SCC(=O)Nc2ccc(N3CCOCC3)cc2)nc(C)c1C`, the cell number change was -8.37%. Take `COc1ccccc1C(=O)N1CCN(CCNC(=O)C(=O)Nc2ccc(Br)c(C)c2)CC1`: the cell number change came to 20.8%. Moreover, the AC50 under setting [2] is 6.51 µM [rising, single point]. As for `CCCN(CC(=O)Nc1cc(Cl)cc(Cl)c1)CC(=O)Nc1ccc(F)c(F)c1F`, the cell number change is -14.9%. The concentration at half-maximal activity (AC50) under setting [2] is 16.4 µM [falling, partial curve].

For `O=C(O)C1CC(=O)N(CCOc2ccccc2)C1` (stereo not drawn), the cell number change was -23.2%. Besides, the AC50 under setting [2] is 1.46 µM [falling, full curve].

Turning to `COc1ccccc1N1CCN(C(=O)/C=C/c2c(Cl)nc3ccccn23)CC1`, the cell number change was 33.6%. Moreover, under setting [1], the AC50 was 3.66 µM [rising, full curve].

For `CC(=O)c1c(C)nn(CCC(=O)O)c1C`, the cell number change came to 9.62%. Also, under setting [1], the half-maximal activity concentration (AC50) was 0.092 µM [falling, full curve, poor fit]. Besides, under setting [2], the AC50 was 18.4 µM [falling, partial curve]. On to `Cn1c(=O)c(C(=O)Nc2ncccn2)c(O)c2ccccc21`, for which the cell number change is -9.38%. As for `COC(=O)c1ccccc1NC(=O)c1ccccc1OC`, the cell number change was -16.7%. Moreover, under setting [2], the AC50 is 11.6 µM [rising, single point]. For `C1=Cc2ccccc2Nc2ccccc21`, the cell number change was -42.8%. For the same compound, the AC50 under setting [1] was 18.4 µM [falling, single point]. For the same compound, the AC50 under setting [2] is 18.4 µM [falling, single point].

As for `CNCCCC1c2ccccc2C=Cc2ccccc21`, the cell number change is -13.3%. For the same compound, the AC50 under setting [2] was 2.91 µM [falling, partial curve, poor fit]. As to `O=C(CNc1ccc(C(F)(F)F)cc1[N+](=O)[O-])OCC(=O)c1ccccc1`, the cell number change came to 50.4%. Besides, the AC50 under setting [1] is 0.92 µM [rising, full curve]. `O=C1C=C(c2cc(Cl)cc(Cl)c2)C[C@@H](c2ccc(F)cc2)C1`: the cell number change is -20.6%. Under setting [2], the AC50 is 0.116 µM [falling, single point]. As for `O=C(NC(=S)Nc1ccccc1Br)c1ccc2c(c1)OCO2`, the cell number change was found to be 6.04%. In addition, the half-maximal activity concentration (AC50) under setting [2] was 1.84 µM [rising, partial curve]. Take `COc1ccc(Oc2cccc(Cl)c2CNC(=O)CSCC(=O)O)cc1`: the cell number change was -19.7%. Also, the AC50 under setting [2] is 0.184 µM [falling, full curve].

In the case of `N#Cc1ccccc1NC(=S)NC(=O)c1cccs1`, the cell number change stood at 12.1%. In the case of `CCN(CC)S(=O)(=O)c1ccc(C(=O)OCC(=O)N2CCOCC2)cc1`, the cell number change is 19.1%. The AC50 under setting [2] was 6.51 µM [falling, single point]. `Nc1c(C(=O)O)cnc2c(-c3ccc(Cl)cc3)cnn12`: the cell number change is -24.6%. In addition, under setting [1], the concentration at half-maximal activity (AC50) was 0.13 µM [rising, full curve, poor fit]. On to `COc1cc(C(=O)NC2Cc3ccccc3C2)ccc1OC1CCN(C(C)=O)CC1`, for which the cell number change was determined as 24.4%.
